PubChem BioAssay AID1259405, NCATS | 2018
In all, the deposit lists about 50,000 reagents; this is a part drawn at random. In the full data, about 4,000 (8%) got an active call. 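Mouse siRNA library applied to hamster cells; one well for each siRNA.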 Entries without a mark were called inactive. The numbers tell different reagents against one gene apart. Reagent sequences are not shown.

Purpose: 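Mouse-designed siRNAs used to find CHO productivity engineering targets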 (primary screen)
Cell system: Chinese hamster CHO-K1 ovary cells with stable secreted eGFP expression
Knock-down reagent: single siRNA against mouse genes, 0.8 pmol siRNA per well (2 µl of 400 nM stock)
Time to read-out: 3 days
Read-out: 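Percent of the per-plate non-targeting control median for intracellular GFP per well by laser scanning cytometry and for cell viability by ATP luminescence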
Scale: GFP, % of control: higher = more GFP per well, higher productivity; viability (ATP), % of control: higher = more viable cells (more ATP)
Call rule: 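Called active when intracellular GFP, relative to negative control, is at or above 120%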

Knock-down of Desi1 (desumoylating isopeptidase 1) #1 gave: GFP, % of control 55.1; viability (ATP), % of control 89. Desi1 (desumoylating isopeptidase 1) #2 scored GFP, % of control 90.8; viability (ATP), % of control 86.4. Depletion of Desi1 (desumoylating isopeptidase 1) #3 resulted in: GFP, % of control 114; viability (ATP), % of control 62.8. Il1f10 (interleukin 1 family, member 10) #1 gave GFP, % of control 44.8; viability (ATP), % of control 42. Knock-down of Il1f10 (interleukin 1 family, member 10) #2 gave: GFP, % of control 55.3; viability (ATP), % of control 87. For Il1f10 (interleukin 1 family, member 10) #3, the entry reads GFP, % of control 84.1; viability (ATP), % of control 68.9.

With knock-down of Nfxl1 (nuclear transcription factor, X-box binding-like 1) #1, the record shows GFP, % of control 86.2; viability (ATP), % of control 89.8. With knock-down of Nfxl1 (nuclear transcription factor, X-box binding-like 1) #2, the screen gave GFP, % of control 105; viability (ATP), % of control 95.9. With knock-down of Nfxl1 (nuclear transcription factor, X-box binding-like 1) #3, the record shows GFP, % of control 106; viability (ATP), % of control 89.8. Gnb1 (guanine nucleotide binding protein (G protein), beta 1) #1 showed GFP, % of control 81.1; viability (ATP), % of control 90. With knock-down of Gnb1 (guanine nucleotide binding protein (G protein), beta 1) #2, the screen gave GFP, % of control 75.9; viability (ATP), % of control 65. Against Gnb1 (guanine nucleotide binding protein (G protein), beta 1) #3, the values are GFP, % of control 106; viability (ATP), % of control 61.6.

For Epcip (exosomal polycystin 1 interacting protein) #1, the entry reads GFP, % of control 107; viability (ATP), % of control 122. For Epcip (exosomal polycystin 1 interacting protein) #2, the values are GFP, % of control 105; viability (ATP), % of control 70.7. Epcip (exosomal polycystin 1 interacting protein) #3 showed GFP, % of control 77.5; viability (ATP), % of control 82.4. With knock-down of Nfe2l2 (nuclear factor, erythroid derived 2, like 2) #1, the record shows GFP, % of control 74; viability (ATP), % of control 64.4. Knock-down of Nfe2l2 (nuclear factor, erythroid derived 2, like 2) #2 came out at: GFP, % of control 52.8; viability (ATP), % of control 65.2. Against Nfe2l2 (nuclear factor, erythroid derived 2, like 2) #3, the entry reads GFP, % of control 78.6; viability (ATP), % of control 107.

For Hemgn (hemogen) #1, the entry reads GFP, % of control 75.5; viability (ATP), % of control 59. Hemgn (hemogen) #2 showed GFP, % of control 106; viability (ATP), % of control 81.3. After knock-down of Hemgn (hemogen) #3, the record shows GFP, % of control 107; viability (ATP), % of control 76.8. Knock-down of Dlst (dihydrolipoamide S-succinyltransferase) #1 resulted in: GFP, % of control 58.9; viability (ATP), % of control 84.7. After knock-down of Dlst (dihydrolipoamide S-succinyltransferase) #2 the results were GFP, % of control 103; viability (ATP), % of control 131. Dlst (dihydrolipoamide S-succinyltransferase) #3 scored GFP, % of control 82.7; viability (ATP), % of control 99.5.

Silencing of Pycr3 (pyrroline-5-carboxylate reductase 3) #1 resulted in: GFP, % of control 132 (active); viability (ATP), % of control 75.4. After knock-down of Pycr3 (pyrroline-5-carboxylate reductase 3) #2, the screen gave GFP, % of control 86.9; viability (ATP), % of control 36.2. Knock-down of Pycr3 (pyrroline-5-carboxylate reductase 3) #3 came out at: GFP, % of control 64.6; viability (ATP), % of control 36.2.

Part of the list above, limited to “viability (ATP), % of control”.
Il1f10 (interleukin 1 family, member 10) #3	68.9
Nfxl1 (nuclear transcription factor, X-box binding-like 1) #1	89.8
